# The list shows a part of the results. The list holds hits alone, and they repeat only in part.
# Protein sequences, listed by entry. Tags and fused reporters are not part of them.
# ATP6V1A, P38606, UniProt P38606, whole entry: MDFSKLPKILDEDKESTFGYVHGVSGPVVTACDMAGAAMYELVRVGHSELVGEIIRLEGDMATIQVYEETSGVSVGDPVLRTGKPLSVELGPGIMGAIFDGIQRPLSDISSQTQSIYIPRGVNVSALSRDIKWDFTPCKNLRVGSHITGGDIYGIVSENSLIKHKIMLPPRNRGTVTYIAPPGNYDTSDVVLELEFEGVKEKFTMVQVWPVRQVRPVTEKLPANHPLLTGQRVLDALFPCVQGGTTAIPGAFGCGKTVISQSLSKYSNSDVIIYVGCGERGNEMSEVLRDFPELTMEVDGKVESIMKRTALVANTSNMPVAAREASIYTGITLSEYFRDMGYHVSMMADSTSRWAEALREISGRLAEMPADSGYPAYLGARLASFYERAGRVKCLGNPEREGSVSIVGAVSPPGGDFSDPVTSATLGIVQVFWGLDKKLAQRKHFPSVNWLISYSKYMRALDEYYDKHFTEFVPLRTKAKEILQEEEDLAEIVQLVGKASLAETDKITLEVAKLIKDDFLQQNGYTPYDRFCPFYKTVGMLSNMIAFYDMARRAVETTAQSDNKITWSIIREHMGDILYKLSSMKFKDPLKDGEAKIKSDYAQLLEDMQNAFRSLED
# EIF3G, O75821, UniProt O75821, whole entry: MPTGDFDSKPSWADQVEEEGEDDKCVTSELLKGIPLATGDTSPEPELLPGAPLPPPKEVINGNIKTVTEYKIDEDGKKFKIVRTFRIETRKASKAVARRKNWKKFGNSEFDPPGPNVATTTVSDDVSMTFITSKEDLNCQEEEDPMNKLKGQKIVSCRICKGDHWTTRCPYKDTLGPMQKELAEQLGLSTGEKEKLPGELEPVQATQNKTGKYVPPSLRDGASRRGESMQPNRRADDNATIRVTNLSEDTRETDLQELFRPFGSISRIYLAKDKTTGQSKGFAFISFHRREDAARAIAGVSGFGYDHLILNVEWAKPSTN
# PSMD11, O00231, UniProt O00231, whole entry: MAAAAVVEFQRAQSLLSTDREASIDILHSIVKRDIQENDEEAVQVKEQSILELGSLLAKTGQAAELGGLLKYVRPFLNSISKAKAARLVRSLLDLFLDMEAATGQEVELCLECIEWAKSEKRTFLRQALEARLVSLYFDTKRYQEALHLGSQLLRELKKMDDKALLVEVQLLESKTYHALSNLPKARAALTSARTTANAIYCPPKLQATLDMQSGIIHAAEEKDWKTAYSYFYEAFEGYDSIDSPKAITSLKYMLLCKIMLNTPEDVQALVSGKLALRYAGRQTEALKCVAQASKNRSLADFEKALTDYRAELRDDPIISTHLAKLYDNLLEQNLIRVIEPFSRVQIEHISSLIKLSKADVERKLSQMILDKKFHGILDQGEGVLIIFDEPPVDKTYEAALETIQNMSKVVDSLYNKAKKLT
# STAT3, P40763, UniProt P40763, whole entry: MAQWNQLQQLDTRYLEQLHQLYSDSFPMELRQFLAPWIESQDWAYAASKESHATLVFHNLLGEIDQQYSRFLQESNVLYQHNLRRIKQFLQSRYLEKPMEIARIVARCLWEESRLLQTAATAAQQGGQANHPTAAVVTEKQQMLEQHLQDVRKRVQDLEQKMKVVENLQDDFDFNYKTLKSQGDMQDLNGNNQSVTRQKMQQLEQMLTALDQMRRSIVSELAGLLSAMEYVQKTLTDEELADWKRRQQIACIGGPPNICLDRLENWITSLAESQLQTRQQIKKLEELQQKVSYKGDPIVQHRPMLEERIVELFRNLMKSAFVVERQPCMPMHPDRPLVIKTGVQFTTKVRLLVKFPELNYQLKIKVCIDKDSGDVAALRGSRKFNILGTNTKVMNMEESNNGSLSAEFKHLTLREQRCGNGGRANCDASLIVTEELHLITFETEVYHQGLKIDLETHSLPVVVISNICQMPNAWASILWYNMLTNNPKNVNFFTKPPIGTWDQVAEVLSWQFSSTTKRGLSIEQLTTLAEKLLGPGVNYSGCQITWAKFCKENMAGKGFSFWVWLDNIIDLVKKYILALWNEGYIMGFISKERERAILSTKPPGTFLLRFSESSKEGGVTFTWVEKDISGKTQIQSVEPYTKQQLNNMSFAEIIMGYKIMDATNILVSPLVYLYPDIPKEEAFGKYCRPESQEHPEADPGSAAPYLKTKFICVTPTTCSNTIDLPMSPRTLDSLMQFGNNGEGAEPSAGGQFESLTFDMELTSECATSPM
# CAMP, P49913, UniProt P49913, whole entry: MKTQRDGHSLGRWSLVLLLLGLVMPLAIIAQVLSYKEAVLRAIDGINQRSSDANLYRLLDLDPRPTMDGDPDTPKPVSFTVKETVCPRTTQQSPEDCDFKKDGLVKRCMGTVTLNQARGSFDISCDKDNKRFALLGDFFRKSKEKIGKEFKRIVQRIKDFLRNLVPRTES
# MSH2, P43246, UniProt P43246, whole entry: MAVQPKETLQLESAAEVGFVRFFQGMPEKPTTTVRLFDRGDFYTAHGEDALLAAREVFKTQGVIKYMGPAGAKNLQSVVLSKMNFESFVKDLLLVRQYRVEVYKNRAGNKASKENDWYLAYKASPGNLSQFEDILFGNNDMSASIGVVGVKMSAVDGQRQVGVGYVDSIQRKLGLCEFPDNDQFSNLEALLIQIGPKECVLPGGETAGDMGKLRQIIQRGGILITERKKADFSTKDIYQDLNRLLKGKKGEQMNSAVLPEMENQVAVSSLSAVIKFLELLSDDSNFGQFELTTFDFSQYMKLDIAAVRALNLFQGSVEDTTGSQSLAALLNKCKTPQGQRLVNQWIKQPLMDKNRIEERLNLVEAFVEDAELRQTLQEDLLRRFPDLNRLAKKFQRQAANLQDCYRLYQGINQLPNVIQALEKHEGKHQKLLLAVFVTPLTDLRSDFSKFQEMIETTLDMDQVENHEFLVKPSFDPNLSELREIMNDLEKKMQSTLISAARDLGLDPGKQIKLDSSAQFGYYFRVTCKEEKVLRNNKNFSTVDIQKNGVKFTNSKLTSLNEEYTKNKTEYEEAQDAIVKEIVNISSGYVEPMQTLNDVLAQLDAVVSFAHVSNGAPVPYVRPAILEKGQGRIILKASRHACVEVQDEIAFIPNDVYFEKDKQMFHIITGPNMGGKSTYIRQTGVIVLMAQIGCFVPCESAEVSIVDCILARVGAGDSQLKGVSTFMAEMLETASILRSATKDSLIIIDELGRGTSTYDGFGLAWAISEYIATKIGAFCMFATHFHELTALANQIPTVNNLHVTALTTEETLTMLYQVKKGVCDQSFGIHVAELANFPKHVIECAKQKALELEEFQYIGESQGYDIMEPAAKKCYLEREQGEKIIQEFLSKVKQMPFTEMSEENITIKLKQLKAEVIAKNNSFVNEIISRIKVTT
# NCL, P19338, UniProt P19338, whole entry: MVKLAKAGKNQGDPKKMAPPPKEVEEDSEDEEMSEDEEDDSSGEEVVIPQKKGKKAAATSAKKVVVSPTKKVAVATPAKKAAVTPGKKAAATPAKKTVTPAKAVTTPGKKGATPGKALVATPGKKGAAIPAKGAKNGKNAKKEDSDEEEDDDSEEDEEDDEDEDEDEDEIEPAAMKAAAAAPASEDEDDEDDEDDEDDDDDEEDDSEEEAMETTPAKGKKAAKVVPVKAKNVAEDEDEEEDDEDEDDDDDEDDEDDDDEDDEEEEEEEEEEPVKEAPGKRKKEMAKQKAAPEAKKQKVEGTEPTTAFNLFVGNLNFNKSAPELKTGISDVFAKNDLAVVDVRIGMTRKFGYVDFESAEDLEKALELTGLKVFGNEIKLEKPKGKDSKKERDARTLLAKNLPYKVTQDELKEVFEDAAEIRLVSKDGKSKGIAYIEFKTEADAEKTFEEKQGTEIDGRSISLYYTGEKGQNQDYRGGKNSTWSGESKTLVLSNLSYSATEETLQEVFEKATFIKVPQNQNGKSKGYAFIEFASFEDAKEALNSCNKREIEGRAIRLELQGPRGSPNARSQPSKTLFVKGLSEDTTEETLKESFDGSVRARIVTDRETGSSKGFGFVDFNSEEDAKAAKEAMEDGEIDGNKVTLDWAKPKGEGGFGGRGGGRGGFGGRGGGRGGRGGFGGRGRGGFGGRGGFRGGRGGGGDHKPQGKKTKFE
# POLR1E, Q9GZS1, UniProt Q9GZS1, whole entry: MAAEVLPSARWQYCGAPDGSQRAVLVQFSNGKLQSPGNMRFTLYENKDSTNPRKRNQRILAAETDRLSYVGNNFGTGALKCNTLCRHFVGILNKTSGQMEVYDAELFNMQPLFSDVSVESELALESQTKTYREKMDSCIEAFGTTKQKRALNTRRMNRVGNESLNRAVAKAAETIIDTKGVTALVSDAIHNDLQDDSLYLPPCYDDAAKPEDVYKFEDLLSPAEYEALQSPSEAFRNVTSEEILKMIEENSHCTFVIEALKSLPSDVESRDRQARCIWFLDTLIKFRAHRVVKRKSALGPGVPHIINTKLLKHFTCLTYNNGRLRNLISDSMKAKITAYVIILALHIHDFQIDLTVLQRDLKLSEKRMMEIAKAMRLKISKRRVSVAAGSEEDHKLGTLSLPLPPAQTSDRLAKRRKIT
# SET, Q01105, UniProt Q01105, whole entry: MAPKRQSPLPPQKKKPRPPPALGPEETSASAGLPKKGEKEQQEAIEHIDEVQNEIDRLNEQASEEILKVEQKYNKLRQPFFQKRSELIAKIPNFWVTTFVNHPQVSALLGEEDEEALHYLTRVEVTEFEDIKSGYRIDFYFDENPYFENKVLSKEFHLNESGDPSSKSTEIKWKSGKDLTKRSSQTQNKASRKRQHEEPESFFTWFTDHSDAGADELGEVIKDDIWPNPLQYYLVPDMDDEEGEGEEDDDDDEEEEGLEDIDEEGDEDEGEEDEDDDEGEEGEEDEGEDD
# CSNK2B, P67870, UniProt P67870, whole entry: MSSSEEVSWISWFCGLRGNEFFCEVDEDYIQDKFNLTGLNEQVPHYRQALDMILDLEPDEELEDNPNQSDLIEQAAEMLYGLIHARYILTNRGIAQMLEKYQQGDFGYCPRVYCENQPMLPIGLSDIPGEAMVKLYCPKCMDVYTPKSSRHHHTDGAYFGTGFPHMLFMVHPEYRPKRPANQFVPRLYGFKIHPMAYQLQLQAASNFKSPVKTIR
# PPP1CB, P62140, UniProt P62140, whole entry: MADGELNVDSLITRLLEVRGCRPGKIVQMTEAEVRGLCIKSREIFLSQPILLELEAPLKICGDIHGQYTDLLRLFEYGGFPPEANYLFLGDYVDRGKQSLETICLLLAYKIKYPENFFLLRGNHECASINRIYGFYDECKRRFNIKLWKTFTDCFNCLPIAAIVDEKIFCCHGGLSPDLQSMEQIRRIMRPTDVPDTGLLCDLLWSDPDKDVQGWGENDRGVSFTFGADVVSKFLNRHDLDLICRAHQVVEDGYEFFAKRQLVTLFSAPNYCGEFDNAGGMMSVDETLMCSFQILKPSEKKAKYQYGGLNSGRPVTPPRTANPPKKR
# Key:
# Test in all cases: PRISMA enrichment of interactor (LFQ) in peptide spot vs all other peptide spots (log2 fold change); higher = stronger / more specific binding of the interactor to the peptide
# [1] = biological target: ALDH9A1, P49189
# Method: (§1)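 PRISMA: 15-aa overlapping tiles (offset 8 aa) of 60 microproteins, plus SOS1/GLUT1 control peptides, were spot-synthesized on cellulose membranes in triplicate. Membranes were incubated with benzonase-treated HEK293T lysate, and bound proteins were identified by LC-MS/MS with LFQ. Enrichment is the log2 fold change of each protein in one spot versus all other spots. Only interactors passing the significance cutoff are listed.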
# [2] = biological target: ANKHD1, Q8IWZ3
# Method: as §1
# [3] = biological target: ASCC2, Q9H1I8
# Method: as §1
# [4] = biological target: ATP6V1A, P38606
# Method: as §1
# [5] = biological target: CCDC77, Q9BR77
# Method: as §1
# [6] = biological target: CLASRP, Q8N2M8
# Method: as §1
# [7] = biological target: DDX42, Q86XP3
# Method: as §1
# [8] = biological target: EIF3G, O75821
# Method: as §1
# [9] = biological target: NUP54, Q7Z3B4
# Method: as §1
# [10] = biological target: PSMD11, O00231
# Method: as §1
# [11] = biological target: PTPN1, P18031
# Method: as §1
# [12] = biological target: RPP38, P78345
# Method: as §1
# [13] = biological target: SHMT1, P34896
# Method: as §1
# [14] = biological target: SNRNP200, O75643
# Method: as §1
# [15] = biological target: STAT3, P40763
# Method: as §1
# [16] = biological target: ZNF483, Q8TF39
# Method: as §1
# [17] = biological target: ZNF845, Q96IR2
# Method: as §1
# [18] = biological target: ALDOA, P04075
# Method: as §1
# [19] = biological target: ANP32A, P39687
# Method: as §1
# [20] = biological target: BAZ1B, Q9UIG0
# Method: as §1
# [21] = biological target: C1QBP, Q07021
# Method: as §1
# [22] = biological target: CAMP, P49913
# Method: as §1
# [23] = biological target: COPS5, Q92905
# Method: as §1
# [24] = biological target: CTNNBL1, Q8WYA6
# Method: as §1
# [25] = biological target: FBXO45, P0C2W1
# Method: as §1
# [26] = biological target: MSH2, P43246
# Method: as §1
# [27] = biological target: NAP1L1, P55209
# Method: as §1
# [28] = biological target: NCL, P19338
# Method: as §1
# [29] = biological target: PEF1, Q9UBV8
# Method: as §1
# [30] = biological target: POLR1E, Q9GZS1
# Method: as §1
# [31] = biological target: PSMA4, P25789
# Method: as §1
# [32] = biological target: SET, Q01105
# Method: as §1
# [33] = biological target: SRSF2, Q01130
# Method: as §1
# [34] = biological target: TFB2M, Q9H5Q4
# Method: as §1
# [35] = biological target: TMEM41B, Q5BJD5
# Method: as §1
# [36] = biological target: TRMT112, Q9UI30
# Method: as §1
# [37] = biological target: TXLNA, P40222
# Method: as §1
# [38] = biological target: ALKBH2, Q6NS38
# Method: as §1
# [39] = biological target: ATXN10, Q9UBB4
# Method: as §1
# [40] = biological target: COPS2, P61201
# Method: as §1
# [41] = biological target: COPS7B, Q9H9Q2
# Method: as §1
# [42] = biological target: CSNK2B, P67870
# Method: as §1
# [43] = biological target: ESF1, Q9H501
# Method: as §1
# [44] = biological target: GPAA1, O43292
# Method: as §1
# [45] = biological target: GTF2E2, P29084
# Method: as §1
# [46] = biological target: GTPBP1, O00178
# Method: as §1
# [47] = biological target: MAEA, Q7L5Y9
# Method: as §1
# [48] = biological target: MYO1D, O94832
# Method: as §1
# [49] = biological target: PPP1CB, P62140
# Method: as §1
# [50] = biological target: SNX2, O60749
# Method: as §1
# [51] = biological target: TAF15, Q92804
# Method: as §1
binder,measurement,setting,value
NGRAVDRAIGWRLFL [TUG1],PRISMA enrichment of interactor (log2),[1],9.74
same,PRISMA enrichment of interactor (log2),[2],5.65
same,PRISMA enrichment of interactor (log2),[3],5.02
same,PRISMA enrichment of interactor (log2),[4],7.91
same,PRISMA enrichment of interactor (log2),[5],4.07
same,PRISMA enrichment of interactor (log2),[6],3.99
same,PRISMA enrichment of interactor (log2),[7],8.14
same,PRISMA enrichment of interactor (log2),[8],6.94
same,PRISMA enrichment of interactor (log2),[9],4.39
same,PRISMA enrichment of interactor (log2),[10],4.99
same,PRISMA enrichment of interactor (log2),[11],4.92
same,PRISMA enrichment of interactor (log2),[12],4.88
same,PRISMA enrichment of interactor (log2),[13],6.28
same,PRISMA enrichment of interactor (log2),[14],4.77
same,PRISMA enrichment of interactor (log2),[15],4.26
same,PRISMA enrichment of interactor (log2),[16],4.45
same,PRISMA enrichment of interactor (log2),[17],4.51
RSRIKTEARETRTKN [CTC-471J1.11],PRISMA enrichment of interactor (log2),[18],5.51
same,PRISMA enrichment of interactor (log2),[19],6.74
same,PRISMA enrichment of interactor (log2),[20],5.1
same,PRISMA enrichment of interactor (log2),[21],6.71
same,PRISMA enrichment of interactor (log2),[22],5.32
same,PRISMA enrichment of interactor (log2),[23],4.57
same,PRISMA enrichment of interactor (log2),[24],4.64
same,PRISMA enrichment of interactor (log2),[25],4.36
same,PRISMA enrichment of interactor (log2),[26],7.23
same,PRISMA enrichment of interactor (log2),[27],5.45
same,PRISMA enrichment of interactor (log2),[28],4.99
same,PRISMA enrichment of interactor (log2),[29],4.7
same,PRISMA enrichment of interactor (log2),[30],4
same,PRISMA enrichment of interactor (log2),[31],5.09
same,PRISMA enrichment of interactor (log2),[32],6.08
same,PRISMA enrichment of interactor (log2),[33],6.09
same,PRISMA enrichment of interactor (log2),[34],5.58
same,PRISMA enrichment of interactor (log2),[35],4.88
same,PRISMA enrichment of interactor (log2),[36],6.14
same,PRISMA enrichment of interactor (log2),[37],6.16
MRFMPLDPTGALGKR [RP11-464C19.3],PRISMA enrichment of interactor (log2),[38],6.88
same,PRISMA enrichment of interactor (log2),[39],5.27
same,PRISMA enrichment of interactor (log2),[40],5.09
same,PRISMA enrichment of interactor (log2),[41],6.1
same,PRISMA enrichment of interactor (log2),[42],6.58
same,PRISMA enrichment of interactor (log2),[43],5.47
same,PRISMA enrichment of interactor (log2),[44],4.01
same,PRISMA enrichment of interactor (log2),[45],8.23
same,PRISMA enrichment of interactor (log2),[46],6
same,PRISMA enrichment of interactor (log2),[47],3.94
same,PRISMA enrichment of interactor (log2),[48],4.67
same,PRISMA enrichment of interactor (log2),[49],4.78
same,PRISMA enrichment of interactor (log2),[50],7.49
same,PRISMA enrichment of interactor (log2),[51],5.52

# 3 entries from above, bar-delimited:
binder | measurement | setting | value
RSRIKTEARETRTKN [CTC-471J1.11] | PRISMA enrichment of interactor (log2) | [33] | 6.09
same | PRISMA enrichment of interactor (log2) | [34] | 5.58
same | PRISMA enrichment of interactor (log2) | [35] | 4.88

# From the supplement of paper PMC10032668
